Reference: PubChem BioAssay AID1671190 (National Center for Advancing Translational Sciences (NCATS), 2021)
About 6,100 (1.1%) of roughly 580,000 compounds were called active. The inconclusive results got no clear call from the source; some entries with a clear call stand among them for comparison. The call rests on the fitted dose curve; in most records, active means well fitted inhibition curve with a large enough effect; inconclusive means small, poorly fitted or top-dose-only effect, or another doubt; inactive means no such curve, though single readings can be large or run the other way. Where the call is inconclusive, the potency comes from a doubtful curve fit.

Chains of the proteins cited; added tags and fusions are not shown. Lines headed by an entry give the natural chain unless they say otherwise; changes in a name come on top.
UniProt P18054: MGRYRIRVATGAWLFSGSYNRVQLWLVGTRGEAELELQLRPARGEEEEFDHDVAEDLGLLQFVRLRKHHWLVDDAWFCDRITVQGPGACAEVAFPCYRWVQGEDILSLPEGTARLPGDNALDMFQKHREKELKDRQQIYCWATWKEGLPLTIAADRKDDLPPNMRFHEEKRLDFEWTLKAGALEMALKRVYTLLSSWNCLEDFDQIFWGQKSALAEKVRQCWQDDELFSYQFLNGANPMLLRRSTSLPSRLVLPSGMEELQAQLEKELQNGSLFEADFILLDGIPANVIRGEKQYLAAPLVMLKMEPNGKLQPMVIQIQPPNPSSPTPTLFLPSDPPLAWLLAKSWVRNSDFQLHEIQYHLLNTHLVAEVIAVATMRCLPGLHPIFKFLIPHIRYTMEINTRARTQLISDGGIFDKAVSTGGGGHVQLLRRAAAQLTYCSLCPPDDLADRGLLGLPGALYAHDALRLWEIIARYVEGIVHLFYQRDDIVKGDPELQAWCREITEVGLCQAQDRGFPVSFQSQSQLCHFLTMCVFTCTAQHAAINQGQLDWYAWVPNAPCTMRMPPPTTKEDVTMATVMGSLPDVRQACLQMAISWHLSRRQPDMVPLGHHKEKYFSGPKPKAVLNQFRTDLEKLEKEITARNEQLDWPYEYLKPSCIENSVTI

Biological target: Polyunsaturated fatty acid lipoxygenase ALOX12 (Homo sapiens) (UniProt P18054)
Test: Primary qHTS assay for inhibitors of human arachidonate 12S-lipoxygenase (ALOX12): Round 2
Settings: purified 12hLO, xylenol orange hydroperoxide absorbance; activity change, negative = inhibition: at 108 µM (top of the series) unless noted
Summary of the method: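 Purified human 12hLO (150 nM final) in 25 mM Hepes, 0.01% Triton X-100, pH 7.0 was preincubated 15 min at room temperature with compound. Then 40 uM arachidonic acid was added, 30 min. Hydroperoxide was read by Fe-XO absorbance ratio 573/405 nm.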
On the % scale 0 is the no-effect control and ±100 the full control effect; potency means the concentration at half of the fitted maximal effect.

| SMILES | Potency | activity change, negative = inhibition |
| --- | --- | --- |
| CCn1cc(-c2ccc(C)cc2)cc1C(=O)N1CCN(c2ccccn2)CC1 | inconclusive: 3.55 µM [inhibitor, full curve] |  |
| Cc1nc(-c2ccc(Cl)cc2)n(Cc2ccc(F)cc2F)c(=O)c1CCO | inconclusive: 28.2 µM [inhibitor, full curve] |  |
| CC(C)CNC(=O)c1cccc(NC(=O)Cc2ccc(Br)cc2)c1 | inconclusive: 112 µM [inhibitor, partial curve, poor fit] |  |
| Fc1ccc(-c2nc3ccc(Br)cn3c2Cc2ccccc2)cc1 | inconclusive: 0.355 µM [inhibitor, full curve, poor fit] |  |
| Cc1ccc2oc(C(=O)Nc3cccc(Cl)c3C)cc(=O)c2c1 | inconclusive: 79.4 µM [inhibitor, single point] |  |
| C/C(=C\c1ccccc1)C(=O)Nc1ccccc1C(C)C |  | inactive: 7.65% |
| COC(=O)c1ccccc1NC(=O)Cn1c(=O)cc(-c2ccccc2)c2c(C)nn(C)c21 | inconclusive: 112 µM [inhibitor, partial curve, poor fit] |  |
| O=C(O)c1ccccc1C(=O)/C=C/c1cccs1 | inconclusive: 141 µM [inhibitor, single point] |  |
| COc1c(N2CCN(C(=S)NC3CC4CCC3C4)C(C)C2)c(F)cc2c(=O)c(C(=O)O)cn(C3CC3)c12 (stereo not drawn) | inconclusive: 35.5 µM [inhibitor, partial curve] |  |
| Cc1ccc(CN2CCN(CC(=O)N/N=C/c3ccccc3F)CC2)cc1 |  | inactive: 205% |
| C#CCSc1nnc(-c2ccc(OC)cc2)o1 | inconclusive: 56.2 µM [inhibitor, partial curve, poor fit] |  |
| Cc1cc(C)c(NC(=S)N(CCN(C)C)C(C)c2cccnc2)c(C)c1 (stereo not drawn) |  | inactive: 0% |
| Cn1c(=O)c(-c2cc(F)cc(F)c2)nc2cnc(N3CCNCC3)nc21 | inconclusive: 35.5 µM [inhibitor, single point] |  |
| COCCCn1c(SCc2nnc(-c3ccccc3)o2)nc2sc3c(c2c1=O)CCC3 | inconclusive: 22.4 µM [inhibitor, partial curve, poor fit] |  |
| CN1CCN(C(=O)c2ccnc(-c3nnc4ccc(N(C)C)nn34)c2)CC1 | inconclusive: 5.01 µM [inhibitor, full curve] |  |
| CN(C)C[C@H]1O[C@@H](CO)[C@@H](O)[C@H]1N1CCN(c2cccc(C(F)(F)F)c2)CC1 | inconclusive: 20 µM [inhibitor, full curve, poor fit] |  |
| COc1ccc(N(CC(=O)Nc2c(C)cccc2C)C(c2ccccc2F)c2nnnn2-c2c(C)cccc2C)cc1 (stereo not drawn) | inconclusive: 50.1 µM [inhibitor, partial curve, poor fit] |  |
| O=C1c2cccc3cccc(c23)C(=O)N1Cc1cccnc1 | inconclusive: 100 µM [inhibitor, single point] |  |
| COc1ccccc1CN1CC(C(=O)NCc2cc(C(C)C)no2)CCC1=O (stereo not drawn) | inconclusive: 39.8 µM [inhibitor, partial curve, poor fit] |  |

| SMILES | Potency | activity change, negative = inhibition |
| --- | --- | --- |
| CN1[C@@H](CCC(=O)N2CCOCC2)CNC(=O)[C@@H]2[C@H]1CCN2CC(C)(C)C |  | inactive: 2.01% [at 176 µM] |
| COC(=O)c1c[nH]c(=S)n1Cc1ccccc1 | inconclusive: 50.1 µM [inhibitor, partial curve, poor fit] |  |
| C#CCOCCOCCOCCNc1nc(N2CCN(C(=O)CCCCCCCCCCNC(=O)Cn3cc(C[C@@H](C)O)nn3)CC2)nc(N2CCN(C(=O)CCCCCCCCCCNC(=O)[C@@H](CCC(=O)O)n3cc(CCCCCN)nn3)CC2)n1 | inconclusive: 44.7 µM [inhibitor, partial curve, poor fit] |  |
| COc1ccc(/C=C2/CCC(CN3CCOCC3)C2=O)cc1 (stereo not drawn) | inconclusive: 35.5 µM [inhibitor, partial curve, poor fit] |  |
| O=C(Nc1ccc(Cc2nc3ccccc3s2)cc1)C1CC=CCC1 (stereo not drawn) | inconclusive: 44.7 µM [inhibitor, partial curve, poor fit] |  |
| Cc1nc2c(C(=O)NCCC(C)C)cnn2c(C)c1Cc1c(F)cccc1Cl | inconclusive: 89.1 µM [inhibitor, partial curve, poor fit] |  |
| O=C(CSc1n[nH]c(-c2cccnc2)n1)Nc1cccc(Cl)c1 |  | inactive: -1.29% |
| Nn1c(=S)[nH]c2sc3c(c2c1=O)CCCC3 |  | inactive: 1.44% |
| COc1ccc(CC(=O)Nc2ccc3c(c2)CN(CCOc2ccccc2)C(=O)C(C)O3)cc1 (stereo not drawn) | inconclusive: 2.51 µM [inhibitor, full curve, poor fit] |  |
| O=C(COc1ccc(Cl)cc1)N1CCC(c2n[nH]c(=O)n2Cc2ccc(F)cc2)CC1 | inconclusive: 28.2 µM [inhibitor, partial curve] |  |
| Cc1nc2c(c(C)c1CCC(=O)NCCN1CCCCCC1)c(=O)n(C)c(=O)n2C |  | inactive: -2.55% |
| COc1ccc(C2C(C#N)=C(N)OC(C(C)(C)C)=C2C#N)c(OC)c1OC (stereo not drawn) | inconclusive: 35.5 µM [inhibitor, partial curve, poor fit] |  |
| CCNc1ncnc2c1CN(C1CCCNC1)C(=O)CN2C (stereo not drawn) | inconclusive: 6.31 µM [inhibitor, full curve, poor fit] |  |
| COc1cccc2sc(N(Cc3cccnc3)C(=O)c3ccc(S(=O)(=O)N(C)C)cc3)nc12 | inconclusive: 126 µM [inhibitor, single point] |  |
| Cc1ccc(NNC(=O)C2CCC2)cc1C | inconclusive: 44.7 µM [inhibitor, partial curve, poor fit] |  |
| C=CCc1ccc(OCC(O)CN2CCN(c3ccccc3OC)CC2)c(OC)c1 (stereo not drawn) | inconclusive: 35.5 µM [inhibitor, partial curve, poor fit] |  |
| COc1ccccc1CNC(=O)c1cc2cc(S(=O)(=O)N3CCCCC3)ccc2n1C |  | inconclusive: -31% [inhibitor] |
| O=C(O)c1ccccc1NC(=O)N1c2ccccc2Sc2ccccc21 | inconclusive: 6.31 µM [inhibitor, full curve, poor fit] |  |
| Cn1cccc1Cc1nnc(SCC(=O)NCc2ccccc2)n1-c1ccc(F)cc1 | inconclusive: 22.4 µM [inhibitor, single point] |  |

Reformatted: 2 of the compounds above.
SMILES	Potency	activity change, negative = inhibition
Cc1nc(-c2ccc(Cl)cc2)n(Cc2ccc(F)cc2F)c(=O)c1CCO	inconclusive: 28.2 µM [inhibitor, full curve]	
CCNc1ncnc2c1CN(C1CCCNC1)C(=O)CN2C (stereo not drawn)	inconclusive: 6.31 µM [inhibitor, full curve, poor fit]	
